The supplement of paper PMC12578635
This is one part of the list. Rule as the data show it: active = 150% or more and inactive = the rest. Single values are uncertain, as repeats are few or missing.

These molecules were tested on Staphylococcus aureus JE2-lux inside RAW 264.7 macrophages (assay: intracellular bacterial bioluminescence relative to DMSO vehicle; higher = higher intracellular bacterial metabolic activity). Conditions: 10 µM; treatment time 4 h; gentamicin 50 µg/ml.

Intracellular bacterial bioluminescence, inactive:
COc1cccc(/C=N/c2cccc3c(=O)[nH][nH]c(=O)c23)c1O 81%
CC(=O)c1c2c3c(c(Cl)ccc3[nH]c1=O)C(=O)c1ccccc1-2 117%
Cn1c(SCC(=O)N2CCCC2)nc2c(-c3ccccc3)csc2c1=O 105%
O=C(CN(Cc1ccc(Cl)cc1)C(=O)c1cccnc1)N1CCNCC1 106%
COCCN(Cc1cc2cc3c(cc2nc1Cl)OCO3)C(=O)NCc1ccccc1 98.7%
N#C/C(C(=O)NCc1ccco1)=C1/SC=C(c2ccccc2)N1c1ccccc1 103%
O=C(CSc1nc2c(c(=O)[nH]1)CN(Cc1ccc(F)cc1)CC2)Nc1ccc(Cl)cc1 68.7%
COC(=O)CCSc1ncnc2scc(-c3ccc(Cl)cc3)c12 71%
NC(=O)C1Cc2ccccc2N1C(=O)CC(c1ccccc1)c1ccccc1 (stereo not given) 101%
CCOc1ccc(NCc2ccc(O)c3ncccc23)cc1 104%
Cc1ccc2nc(-c3ccc(NC(=O)C4CC4)cc3)sc2c1 108%
CCCCCNC(=O)c1cc(-c2ccc(Cl)cc2)nc2[nH]nc(-c3ccc(OC)cc3)c12 84.6%
Cc1nc2c(C)cccc2cc1C(=O)NCCS(=O)(=O)NC1CCCCC1 53.8%
O=c1/c(=C/c2ccc(Br)cc2)sc2nc(-c3ccncc3)nn12 92.2%
CCc1nnsc1C(=O)Nc1ccc(S(=O)(=O)N2CCOCC2)cc1 76.9%
O=C1NC(=O)c2cc(NC(=O)c3cc(Cl)sc3Cl)ccc21 114%
NC(=O)c1c(Nc2nc3ccc(F)cc3s2)sc2c1CCCC2 90.8%
O=C(CN1CCc2nc(N3CCOCC3)[nH]c(=O)c2C1)Nc1ccc2c(c1)OCO2 129%
O=C(NC1(CN2CCCC2)CCCCC1)C1OCOc2ccccc21 (stereo not given) 107%
CCC(C)NC(=O)c1ccc2c(=O)n(C)c3n[nH]c(=S)n3c2c1 (stereo not given) 118%
COc1ccc2cc(CCNC(=O)Cc3cccc4ccccc34)c(=O)[nH]c2c1 59.5%
O=C(O)c1cc(-c2ccc(F)cc2)nc2ccccc12 106%
COc1ccc(N2C(=O)NC3CC2(C)Oc2ccc([N+](=O)[O-])cc23)c(OC)c1 (stereo not given) 91.8%
CCc1ccc(NC(=O)Nc2ccccc2OCc2cc(=O)n3ccc(C)cc3n2)cc1 118%
COc1ccc2[nH]c3nc(SCc4nc5ccccc5[nH]4)nnc3c2c1 39.5%
Cc1ccc(C)c(N2CCN(S(=O)(=O)c3c(C)sc(C)c3-c3cc(C(F)(F)F)on3)CC2)c1 87.2%
COc1ccc(C(=O)Nc2cccc(-c3ccc4nncn4n3)c2)c(OC)c1 68.3%
CN(c1cncc(C(=O)NCc2cccnc2)c1)S(=O)(=O)c1ccccc1 117%
CC(=O)Nc1ccc(S(=O)(=O)Nc2ccc(O)c3ccccc23)cc1 92.2%
CC(=O)Cc1nsc(NC(=O)c2cc(-c3ccc(Cl)cc3Cl)oc2C)n1 105%
Cc1cc(C)c2nc(NC(=O)c3cccc(C(F)(F)F)c3)sc2c1 129%
COc1ccc(NC(=S)N2CCC(n3c(C)nc4cc(F)ccc43)CC2)cc1 91.9%
CCc1cc2cc(C)ccc2nc1SCC(=O)NNC(=O)c1ccc(OC)cc1 84%
Cc1nc2ccc(C(=O)NC(c3ccccc3)c3cccnc3)cc2[nH]1 (stereo not given) 116%
CCOc1ccccc1-c1nc(Cn2nc(-c3ccc(OC)cc3)c3c(C)onc3c2=O)c(C)o1 85.7%
COc1cccc2sc(NNC(=O)c3cc(-c4cccs4)nc4ccccc34)nc12 103%
COc1cccc(/C=C/c2nc(C#N)c(N3CCN(C(=O)c4ccccc4Cl)CC3)o2)c1 126%
CCn1c(SCc2nnc(-c3ccc(OC)c(OC)c3)o2)nc2ccccc2c1=O 76.9%
Cc1ccc(C(=O)Nc2nc(-c3ccc(C)s3)ns2)cc1 127%
CCN1CCN(c2nc3ncn(CC(=O)Nc4ccc(F)c(C)c4)c(=O)c3s2)CC1 99.4%
COC(=O)c1ccc(C(=O)NC(=S)Nc2nc3c(s2)CCc2ccccc2-3)cc1 119%
Cc1ccc(NC(=S)NCCNc2nc3cc4c(cc3cc2C#N)OCO4)cc1C 120%
O=C(Nc1cccc(Cl)c1)c1cc(-c2ccc3c(c2)OCCO3)on1 136%
Cc1sc2ncnc(SCC(=O)Nc3sc(-c4ccccc4)cc3C(N)=O)c2c1C 96.3%
Cc1n[nH]c2c1C(C(=O)c1cccc(Cl)c1)CC(=O)N2 (stereo not given) 89.1%
COc1ccc(C(=O)C2CCN(CC(=O)Nc3ccccc3F)CC2)cc1 94.7%
Cc1n[nH]c2c1C(C(=O)c1ccc3c(c1)OCCO3)CC(=O)N2 (stereo not given) 112%
Cc1cc2c(cc1C)NC(CC(=O)Nc1ccccc1[N+](=O)[O-])C(=O)N2 (stereo not given) 105%
Cc1ccc(NC(=O)N2CCCC2C(=O)Nc2ccccc2Cl)cc1 (stereo not given) 109%
COc1ccc(Nc2cc(C)nc(-n3cc([N+](=O)[O-])cn3)n2)cc1Cl 46.4%
O=C(CN1N=NC2C(=O)N(c3ccc(Br)cc3)C(=O)C21)Nc1ccccc1[N+](=O)[O-] (stereo not given) 106%
COc1ccc(S(=O)(=O)NC(=N)NCCc2ccc(Cl)cc2)cc1OC 62.7%
O=C(NCc1ccc(F)cc1)C1CCN(c2nc(-c3ccccc3)no2)CC1 112%
COCCNC(=S)N1CCCN(c2nc3cc4c(cc3cc2C#N)OCO4)CC1 95.5%
CCCCNC(=O)c1cc(-c2ccc(OC)cc2)nc2n[nH]c(-c3ccc(OC)cc3)c12 86.4%
Cc1ccc(N/C=C(\C#N)c2nc(-c3ccc([N+](=O)[O-])cc3)cs2)cc1Cl 112%
O=C(CS(=O)(=O)c1ccccc1)Nc1ccc2c(c1)C(=O)NC2=O 127%
O=C(CCn1cnc2ccccc2c1=O)NC1CCC(=O)NC1c1ccc(F)cc1 (stereo not given) 91.1%
Cc1ccc2onc(CNC(=O)N3CCCC3)c2c1 95.3%
O=C(OC1CCCCC1)c1cc2cc([N+](=O)[O-])ccc2oc1=O 121%
O=C(c1ccc(COc2ccc(F)cc2)o1)n1cccn1 89.3%
CCn1c(=O)c(C)nc2cc(-c3noc(C(NS(=O)(=O)c4ccc(C)cc4)C(C)C)n3)ccc21 (stereo not given) 108%
O=C(O)c1cnc(N2CCC(N3CCCCC3)CC2)c(NS(=O)(=O)c2ccccc2)c1 95.1%
Cc1cc(C)c(C#N)c(SCC(=O)Nc2cccc3cccnc23)n1 109%
CCOC(=O)N1CCN(C(=O)CSc2ccnc3c2c(=O)n(C)c(=O)n3C)CC1 93.5%
CSc1ccc(CNC(=O)c2nccn2Cc2ccccc2C)cc1 4.42%
COc1ccc(CNC(=O)CSc2nc3[nH]ncc3c(=O)n2-c2ccccc2)cc1 110%
CC1CN(C(c2cccs2)c2sc3ncnn3c2O)CC(C)O1 (stereo not given) 117%
Cc1cc(C)n2nc(C(=O)NC(c3ccccc3)c3cccnc3)c(Cl)c2n1 (stereo not given) 78.5%
COc1ccc(C)cc1NC(=O)C1CCCN(C(=O)Nc2ccc(F)cc2)C1 (stereo not given) 118%
Cc1cc(O)nc(SCc2cn3cccnc3n2)n1 119%
Cc1oc(-c2ccc(F)cc2)nc1C(=O)NC(c1ccccc1)c1cccnc1 (stereo not given) 98.2%
COc1ccc(OC)c2[nH]c(=O)c(CCNC(=O)c3cc4ccccc4oc3=O)cc12 96.8%
COc1ccccc1CCNC(=N)NS(=O)(=O)c1ccc(F)cc1 75%
CC(C)Cn1c(=O)c2ccc(C(=O)NC3CCCC3)cc2n2c(=S)[nH]nc12 123%
CCOC(=O)c1ccccc1NC(=O)CSc1ncnc2c1nnn2-c1ccc(C)cc1 89.5%
CN(C)S(=O)(=O)c1ccc2nc(NC(=O)C(c3ccccc3)c3ccccc3)sc2c1 123%
CCOc1ccccc1NC(=O)NCCNc1nc2cc(C)c(C)cc2cc1C#N 48%
O=C(CN(C(=O)Cn1nnc2ccccc21)c1ccccc1)NCC1CCCO1 (stereo not given) 119%
COc1ccc(-c2nc(OC)c3c4c(sc3n2)CCCC4)cc1 104%
COc1cc2ccccc2cc1C(=O)Nc1ccc2c(c1)C(=O)N(C)C2=O 142%
Cc1oc2c(O)c(O)ccc2c(=O)c1-c1ccccc1 96.8%
COc1cc(/C=N/n2c(C)cc(C)c(C#N)c2=O)ccc1OC(C)=O 87.9%
CN(C)C(=O)c1csc2nc(-c3ccc(NC(=O)c4ccc(Cl)nc4)cc3)cn12 66%
CCC(CC)C(=O)N1CC(=O)Nc2ccc(Cl)cc2C1c1ccc(F)cc1 (stereo not given) 73.8%
COCCn1c(N)c(S(=O)(=O)c2cccc(C)c2)c2nc3ccccc3nc21 6.67%
Cc1nn(C)cc1C(=O)NC1CCN(c2nc3c(c(=O)[nH]2)CCCC3)CC1 109%
Cc1ccc2nc(-n3nc(C)c4c3NC(=O)CC4c3ccc(F)c(F)c3)sc2c1 (stereo not given) 93.2%
CC(C)OCCCNC(=O)c1c(N)n(/N=C/c2ccccc2O)c2nc3ccccc3nc12 82.8%
O=C(CSc1nc2c(c(=O)n1-c1ccc(F)cc1)SCC2)NCC1CCCO1 (stereo not given) 93.5%

Part of the list above in order of number of heavy atoms, largest number first:
Intracellular bacterial bioluminescence, inactive:
COc1ccc(OC)c2[nH]c(=O)c(CCNC(=O)c3cc4ccccc4oc3=O)cc12 96.8%
O=C(NCc1ccc(F)cc1)C1CCN(c2nc(-c3ccccc3)no2)CC1 112%
O=C(O)c1cc(-c2ccc(F)cc2)nc2ccccc12 106%
